Source: PMC8080764

Target: T1, 3xFlag-KDM2B (pCMV-3xFlag-KDM2B) (UniProt Q8NHM5)
T1 sequence: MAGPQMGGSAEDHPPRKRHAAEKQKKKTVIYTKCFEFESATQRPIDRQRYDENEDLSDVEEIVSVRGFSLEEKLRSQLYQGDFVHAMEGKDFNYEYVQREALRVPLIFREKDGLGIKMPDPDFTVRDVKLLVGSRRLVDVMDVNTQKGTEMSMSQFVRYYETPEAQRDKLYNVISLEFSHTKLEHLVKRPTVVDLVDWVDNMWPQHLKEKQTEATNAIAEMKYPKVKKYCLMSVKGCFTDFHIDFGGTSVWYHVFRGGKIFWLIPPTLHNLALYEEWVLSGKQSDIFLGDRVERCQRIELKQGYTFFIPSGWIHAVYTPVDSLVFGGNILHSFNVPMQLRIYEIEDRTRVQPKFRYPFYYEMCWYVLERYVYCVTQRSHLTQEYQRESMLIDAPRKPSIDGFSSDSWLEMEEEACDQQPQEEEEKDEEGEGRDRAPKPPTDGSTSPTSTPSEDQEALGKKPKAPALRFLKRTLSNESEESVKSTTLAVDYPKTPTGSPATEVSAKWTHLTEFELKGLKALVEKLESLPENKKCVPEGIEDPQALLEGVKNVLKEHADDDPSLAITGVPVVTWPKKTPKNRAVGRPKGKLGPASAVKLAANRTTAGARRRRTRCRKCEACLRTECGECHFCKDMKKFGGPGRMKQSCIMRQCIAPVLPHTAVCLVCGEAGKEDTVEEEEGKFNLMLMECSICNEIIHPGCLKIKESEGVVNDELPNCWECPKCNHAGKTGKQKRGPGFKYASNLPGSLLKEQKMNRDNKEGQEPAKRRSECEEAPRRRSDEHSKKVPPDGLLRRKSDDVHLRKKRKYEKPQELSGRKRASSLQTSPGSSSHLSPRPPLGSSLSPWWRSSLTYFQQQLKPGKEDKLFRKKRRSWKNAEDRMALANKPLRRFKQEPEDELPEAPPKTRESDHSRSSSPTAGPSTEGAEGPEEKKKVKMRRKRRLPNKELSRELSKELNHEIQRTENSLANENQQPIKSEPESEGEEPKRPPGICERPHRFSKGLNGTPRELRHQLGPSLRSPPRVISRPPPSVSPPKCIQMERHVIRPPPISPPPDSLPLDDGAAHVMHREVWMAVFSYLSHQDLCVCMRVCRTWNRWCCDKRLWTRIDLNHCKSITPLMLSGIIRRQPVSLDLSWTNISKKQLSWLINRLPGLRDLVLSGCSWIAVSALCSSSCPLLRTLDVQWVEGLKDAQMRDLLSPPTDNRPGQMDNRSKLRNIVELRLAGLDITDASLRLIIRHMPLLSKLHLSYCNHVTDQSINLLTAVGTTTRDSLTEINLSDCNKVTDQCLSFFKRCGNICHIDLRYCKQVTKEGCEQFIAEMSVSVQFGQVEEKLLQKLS
Experiment: co-IP; pCMV-3xFlag-KDM2B and pCGN-HA-SRF (full length or truncations) transfected into 293T cells (cell line of Fig. 3e not named); IP with anti-Flag (KDM2B), inverse IP by HA-SRF; 0.5% NP40 lysis buffer, overnight at 4 °C

## SRF-AB (truncated SRF with the MADS-box) (domain or fragment)
  binding: binds

No constants are given. Whether binding was seen depends on the method and setting. Binding seen in cells or lysates may run through a third protein. A result given as binding can be weak or reduced; the word gives no strength. Where a sequence is shown, tags or fusion partners need not be part of it.
